Source: patent publication US20260207508A1, “CYCLODEXTRIN-POLY (BETA AMINO ESTER) MACROMOLECULES FOR NANOPARTICLE DRUG DELIVERY” (UNIVERSITY OF MASSACHUSETTS, priority 2023, published 2026)
For at least one compound, name, drawing or mass did not settle the structure.

System: acetylation of lysine 9 on histone H3 (H3K9ac)
Assay: Pharmacodynamic H3K9ac readout
Assay type: in vivo
Conditions: administered intrathecally or intraperitoneally

Cc1[nH]c2ccccc2c1CCNCc1ccc(/C=C/C(=O)NO)cc1 [panobinostat]
levels of H3K9ac: increased levels
